From the supplement of paper PMC10849652
The other results are listed elsewhere or left out.

Amino acid sequences for entries named in this document (tags omitted). A change or cut given only in a name is not applied to a line headed by its entry.
UniProt O60610, whole entry, looked up: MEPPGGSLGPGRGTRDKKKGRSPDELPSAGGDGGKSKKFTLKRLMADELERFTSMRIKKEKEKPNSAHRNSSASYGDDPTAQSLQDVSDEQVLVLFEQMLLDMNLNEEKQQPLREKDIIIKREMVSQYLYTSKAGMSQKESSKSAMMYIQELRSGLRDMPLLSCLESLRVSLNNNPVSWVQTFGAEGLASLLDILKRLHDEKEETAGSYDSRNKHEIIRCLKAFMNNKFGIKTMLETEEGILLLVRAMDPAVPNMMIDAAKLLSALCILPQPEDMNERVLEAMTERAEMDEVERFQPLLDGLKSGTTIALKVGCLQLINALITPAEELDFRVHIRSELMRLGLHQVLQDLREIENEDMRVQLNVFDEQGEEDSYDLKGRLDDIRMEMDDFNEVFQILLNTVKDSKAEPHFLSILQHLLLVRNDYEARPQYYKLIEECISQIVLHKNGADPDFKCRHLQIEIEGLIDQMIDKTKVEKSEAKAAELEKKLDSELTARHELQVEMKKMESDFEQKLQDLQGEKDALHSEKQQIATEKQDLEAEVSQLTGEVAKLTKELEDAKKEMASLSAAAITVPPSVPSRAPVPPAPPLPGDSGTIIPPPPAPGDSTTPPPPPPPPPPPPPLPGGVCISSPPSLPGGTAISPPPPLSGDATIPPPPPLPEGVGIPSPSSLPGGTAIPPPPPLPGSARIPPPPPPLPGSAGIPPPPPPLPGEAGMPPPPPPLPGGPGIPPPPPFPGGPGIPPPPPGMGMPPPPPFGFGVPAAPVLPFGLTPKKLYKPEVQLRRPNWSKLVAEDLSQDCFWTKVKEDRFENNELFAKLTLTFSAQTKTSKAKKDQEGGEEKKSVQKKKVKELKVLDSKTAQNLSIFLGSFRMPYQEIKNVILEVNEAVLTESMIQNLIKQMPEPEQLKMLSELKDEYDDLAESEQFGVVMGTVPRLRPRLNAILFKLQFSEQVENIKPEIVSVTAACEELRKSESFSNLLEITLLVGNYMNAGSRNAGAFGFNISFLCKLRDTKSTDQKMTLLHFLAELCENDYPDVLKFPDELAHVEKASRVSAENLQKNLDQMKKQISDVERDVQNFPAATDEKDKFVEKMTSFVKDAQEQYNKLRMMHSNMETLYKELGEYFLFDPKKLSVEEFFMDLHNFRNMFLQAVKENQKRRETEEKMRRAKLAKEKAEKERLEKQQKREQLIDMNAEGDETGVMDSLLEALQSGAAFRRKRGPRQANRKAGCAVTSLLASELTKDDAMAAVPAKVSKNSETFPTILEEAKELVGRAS
UniProt Q9UJV9: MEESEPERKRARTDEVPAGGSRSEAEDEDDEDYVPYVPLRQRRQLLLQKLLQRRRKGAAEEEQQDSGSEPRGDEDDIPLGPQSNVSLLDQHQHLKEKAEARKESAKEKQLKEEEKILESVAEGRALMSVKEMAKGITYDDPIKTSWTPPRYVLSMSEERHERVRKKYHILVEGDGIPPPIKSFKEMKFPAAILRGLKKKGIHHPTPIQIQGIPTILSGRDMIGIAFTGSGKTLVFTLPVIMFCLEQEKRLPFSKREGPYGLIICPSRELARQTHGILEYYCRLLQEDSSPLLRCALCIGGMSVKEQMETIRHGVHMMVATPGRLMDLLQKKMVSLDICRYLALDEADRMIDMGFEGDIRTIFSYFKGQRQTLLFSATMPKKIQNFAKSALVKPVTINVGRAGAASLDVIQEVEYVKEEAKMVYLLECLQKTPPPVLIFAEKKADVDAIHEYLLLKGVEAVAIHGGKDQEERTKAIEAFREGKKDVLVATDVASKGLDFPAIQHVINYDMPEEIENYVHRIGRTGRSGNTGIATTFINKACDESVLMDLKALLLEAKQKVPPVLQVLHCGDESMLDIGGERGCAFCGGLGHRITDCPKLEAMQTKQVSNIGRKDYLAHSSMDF
UniProt Q8TE73: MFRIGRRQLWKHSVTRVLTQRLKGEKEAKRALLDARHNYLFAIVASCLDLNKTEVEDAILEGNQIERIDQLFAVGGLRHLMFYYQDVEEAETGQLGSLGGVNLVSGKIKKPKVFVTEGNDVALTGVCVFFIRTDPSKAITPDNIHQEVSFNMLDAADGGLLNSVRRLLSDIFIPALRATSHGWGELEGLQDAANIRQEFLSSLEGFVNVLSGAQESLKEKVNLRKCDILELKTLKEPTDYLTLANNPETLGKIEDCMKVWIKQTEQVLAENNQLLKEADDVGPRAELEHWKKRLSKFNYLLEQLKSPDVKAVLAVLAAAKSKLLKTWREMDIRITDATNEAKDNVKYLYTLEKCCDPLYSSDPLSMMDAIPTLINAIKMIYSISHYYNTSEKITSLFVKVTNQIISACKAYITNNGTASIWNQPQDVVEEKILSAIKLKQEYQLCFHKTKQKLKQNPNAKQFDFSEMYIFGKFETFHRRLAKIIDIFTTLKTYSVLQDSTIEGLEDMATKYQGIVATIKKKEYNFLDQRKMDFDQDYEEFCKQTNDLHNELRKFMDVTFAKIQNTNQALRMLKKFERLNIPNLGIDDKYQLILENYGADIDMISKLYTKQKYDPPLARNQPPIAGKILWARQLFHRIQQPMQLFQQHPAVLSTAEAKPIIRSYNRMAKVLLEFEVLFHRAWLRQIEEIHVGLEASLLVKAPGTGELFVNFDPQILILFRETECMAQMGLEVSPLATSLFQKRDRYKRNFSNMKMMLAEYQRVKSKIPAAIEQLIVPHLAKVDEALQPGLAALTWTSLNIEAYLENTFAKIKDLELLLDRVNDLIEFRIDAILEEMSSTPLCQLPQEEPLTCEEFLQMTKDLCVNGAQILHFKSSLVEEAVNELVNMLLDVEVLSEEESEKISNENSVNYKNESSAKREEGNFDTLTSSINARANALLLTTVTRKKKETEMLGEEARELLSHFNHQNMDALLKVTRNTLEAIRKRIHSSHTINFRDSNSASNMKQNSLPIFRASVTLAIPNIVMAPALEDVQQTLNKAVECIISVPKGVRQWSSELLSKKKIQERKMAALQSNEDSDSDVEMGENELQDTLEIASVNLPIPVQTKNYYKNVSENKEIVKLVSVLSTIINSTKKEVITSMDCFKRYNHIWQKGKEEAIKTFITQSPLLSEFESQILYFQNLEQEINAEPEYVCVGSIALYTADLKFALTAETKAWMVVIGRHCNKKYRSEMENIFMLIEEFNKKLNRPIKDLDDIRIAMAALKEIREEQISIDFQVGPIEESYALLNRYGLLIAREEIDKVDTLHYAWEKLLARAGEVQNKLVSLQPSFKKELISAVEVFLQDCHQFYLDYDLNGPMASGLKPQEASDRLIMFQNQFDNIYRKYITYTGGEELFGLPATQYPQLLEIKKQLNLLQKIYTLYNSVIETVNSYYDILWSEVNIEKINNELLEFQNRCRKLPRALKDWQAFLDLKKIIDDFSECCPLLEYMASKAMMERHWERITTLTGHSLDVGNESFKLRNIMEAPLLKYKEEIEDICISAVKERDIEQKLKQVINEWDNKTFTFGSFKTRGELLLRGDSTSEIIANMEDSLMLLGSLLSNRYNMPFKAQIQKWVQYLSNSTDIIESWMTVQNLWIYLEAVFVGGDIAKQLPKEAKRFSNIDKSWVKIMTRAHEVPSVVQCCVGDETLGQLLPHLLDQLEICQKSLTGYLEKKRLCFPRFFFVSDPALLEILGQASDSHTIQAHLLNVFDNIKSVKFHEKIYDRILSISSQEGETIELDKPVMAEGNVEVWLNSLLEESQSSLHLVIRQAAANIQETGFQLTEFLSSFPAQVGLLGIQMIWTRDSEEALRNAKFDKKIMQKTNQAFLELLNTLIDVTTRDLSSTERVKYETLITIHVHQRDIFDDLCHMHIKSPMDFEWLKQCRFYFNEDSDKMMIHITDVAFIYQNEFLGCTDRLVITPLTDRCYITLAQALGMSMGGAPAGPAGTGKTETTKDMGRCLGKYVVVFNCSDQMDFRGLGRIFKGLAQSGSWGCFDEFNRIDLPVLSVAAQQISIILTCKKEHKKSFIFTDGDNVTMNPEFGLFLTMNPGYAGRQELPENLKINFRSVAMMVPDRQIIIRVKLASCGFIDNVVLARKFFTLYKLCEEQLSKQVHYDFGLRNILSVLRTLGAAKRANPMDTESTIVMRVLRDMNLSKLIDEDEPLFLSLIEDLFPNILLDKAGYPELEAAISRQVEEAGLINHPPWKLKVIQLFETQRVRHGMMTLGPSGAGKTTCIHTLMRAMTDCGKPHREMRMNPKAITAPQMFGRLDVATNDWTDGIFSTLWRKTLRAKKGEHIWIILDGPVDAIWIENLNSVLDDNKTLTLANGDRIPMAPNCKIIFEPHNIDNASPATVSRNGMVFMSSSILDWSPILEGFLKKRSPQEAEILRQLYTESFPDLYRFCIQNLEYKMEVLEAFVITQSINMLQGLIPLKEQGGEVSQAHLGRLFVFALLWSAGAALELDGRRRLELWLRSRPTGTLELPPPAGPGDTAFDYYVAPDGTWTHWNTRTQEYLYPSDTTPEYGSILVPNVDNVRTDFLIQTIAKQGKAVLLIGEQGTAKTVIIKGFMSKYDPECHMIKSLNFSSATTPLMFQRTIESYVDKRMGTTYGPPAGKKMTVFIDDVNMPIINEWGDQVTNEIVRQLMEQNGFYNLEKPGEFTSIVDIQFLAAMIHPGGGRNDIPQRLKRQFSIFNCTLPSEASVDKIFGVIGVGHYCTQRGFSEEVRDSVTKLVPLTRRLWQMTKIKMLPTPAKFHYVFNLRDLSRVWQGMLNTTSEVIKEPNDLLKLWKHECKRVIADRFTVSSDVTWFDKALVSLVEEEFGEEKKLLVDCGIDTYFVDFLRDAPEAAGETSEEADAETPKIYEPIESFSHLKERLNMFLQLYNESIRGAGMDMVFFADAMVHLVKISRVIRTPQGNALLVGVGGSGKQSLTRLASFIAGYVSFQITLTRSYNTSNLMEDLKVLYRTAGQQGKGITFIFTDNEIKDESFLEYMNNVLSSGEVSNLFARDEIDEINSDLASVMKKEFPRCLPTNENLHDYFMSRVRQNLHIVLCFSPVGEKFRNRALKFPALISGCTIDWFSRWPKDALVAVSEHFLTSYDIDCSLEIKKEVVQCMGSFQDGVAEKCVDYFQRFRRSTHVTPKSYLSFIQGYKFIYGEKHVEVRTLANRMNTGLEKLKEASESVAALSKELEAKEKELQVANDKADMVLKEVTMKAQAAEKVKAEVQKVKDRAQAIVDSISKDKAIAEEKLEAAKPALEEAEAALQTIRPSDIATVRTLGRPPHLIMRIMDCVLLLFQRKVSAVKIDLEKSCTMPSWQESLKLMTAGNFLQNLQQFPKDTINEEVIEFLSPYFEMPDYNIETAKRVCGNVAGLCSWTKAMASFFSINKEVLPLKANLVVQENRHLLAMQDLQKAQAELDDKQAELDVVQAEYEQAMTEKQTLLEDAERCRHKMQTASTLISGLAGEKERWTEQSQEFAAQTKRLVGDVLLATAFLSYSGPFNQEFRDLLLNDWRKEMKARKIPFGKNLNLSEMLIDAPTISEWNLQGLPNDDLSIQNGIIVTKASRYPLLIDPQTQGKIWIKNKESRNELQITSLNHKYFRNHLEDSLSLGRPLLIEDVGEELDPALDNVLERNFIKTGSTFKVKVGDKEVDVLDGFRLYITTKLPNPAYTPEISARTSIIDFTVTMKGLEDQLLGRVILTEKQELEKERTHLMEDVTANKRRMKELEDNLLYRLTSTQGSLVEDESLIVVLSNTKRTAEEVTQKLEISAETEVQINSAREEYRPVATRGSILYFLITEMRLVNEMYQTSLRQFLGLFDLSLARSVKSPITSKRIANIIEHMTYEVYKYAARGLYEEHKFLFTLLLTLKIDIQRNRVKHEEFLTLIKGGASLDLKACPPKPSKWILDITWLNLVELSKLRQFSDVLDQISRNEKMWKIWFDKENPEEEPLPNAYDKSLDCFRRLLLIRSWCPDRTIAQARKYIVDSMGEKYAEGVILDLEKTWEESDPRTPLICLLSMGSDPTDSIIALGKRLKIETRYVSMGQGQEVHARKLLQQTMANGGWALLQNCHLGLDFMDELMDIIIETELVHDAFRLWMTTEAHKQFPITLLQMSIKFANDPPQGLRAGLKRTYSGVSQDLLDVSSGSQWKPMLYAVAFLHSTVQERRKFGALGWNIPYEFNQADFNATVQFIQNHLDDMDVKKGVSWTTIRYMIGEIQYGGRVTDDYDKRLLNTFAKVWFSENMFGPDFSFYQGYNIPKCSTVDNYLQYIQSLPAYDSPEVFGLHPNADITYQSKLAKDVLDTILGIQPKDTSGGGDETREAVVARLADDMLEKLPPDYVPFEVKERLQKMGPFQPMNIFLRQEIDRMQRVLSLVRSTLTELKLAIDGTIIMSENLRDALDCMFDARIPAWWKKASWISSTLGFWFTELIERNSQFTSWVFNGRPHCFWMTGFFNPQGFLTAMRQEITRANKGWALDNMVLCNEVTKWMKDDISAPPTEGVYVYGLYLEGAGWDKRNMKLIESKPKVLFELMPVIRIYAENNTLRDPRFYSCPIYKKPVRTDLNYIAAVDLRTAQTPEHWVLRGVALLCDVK

Columns and labels:
Assay in all cases: log2 fold change, soluble protein after heating vs DMSO (PISA); higher = thermal stabilisation; K562 cells, 10 uM, 30 min; active = over 0.2 and 3.5 SD of the protein, either way, in both replicates (recomputed)
[1] = compound: CS(=O)(=O)c1ccc(-c2cnc(N)c(C(=O)Nc3ccccc3)n2)cc1
In short: (§1)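 K562 cells at 2×10^6 cells/mL were treated with 10 μM compound for 30 min. Aliquots were heated for 3 min across 48°C-58°C, pooled, and extracted in PBS with 0.5% NP-40 at 4°C; soluble protein was the supernatant after 21,000xg for 90 min. Soluble protein was quantified by TMTpro 16plex LC-MS/MS with channel sums equalised, and reported as log2 fold change in thermal stability against DMSO controls, with values from duplicates.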

crizotinib = compound: C[C@@H](Oc1cc(-c2cnn(C3CCNCC3)c2)cnc1N)c1c(Cl)ccc(F)c1Cl [crizotinib]
In short: as §1

[2] = compound: C[C@@H]1COCCN1C2=NC(=NC(=C2)C3(CC3)S(=O)(=O)C)C4=C5C=CNC5=CC=C4
In short: as §1

[3] = compound: C[C@H](C1=CC=C(C=C1)C(=O)NC2=C3C=CNC3=NC=C2)N
In short: as §1

gandotinib = compound: Cc1cc(Nc2cc(CN3CCOCC3)c3nc(C)c(Cc4ccc(Cl)cc4F)n3n2)n[nH]1 [gandotinib]
In short: as §1

[4] = compound: Cc1cc(SCc2sc(-c3ccc(C(F)(F)F)cc3)nc2C)ccc1OCC(=O)O
In short: as §1

doramapimod = compound: Cc1ccc(-n2nc(C(C)(C)C)cc2NC(=O)Nc2ccc(OCCN3CCOCC3)c3ccccc23)cc1 [doramapimod]
In short: as §1

ispinesib = compound: Cc1ccc(C(=O)N(CCCN)[C@@H](c2nc3cc(Cl)ccc3c(=O)n2Cc2ccccc2)C(C)C)cc1 [ispinesib]
In short: as §1

bafetinib = compound: Cc1ccc(NC(=O)c2ccc(CN3CC[C@H](N(C)C)C3)c(C(F)(F)F)c2)cc1Nc1nccc(-c2cncnc2)n1 [bafetinib]
In short: as §1

[5] = compound: Cc1cccc(CC(=O)N2CCc3c2ccc(-c2cn(C)c4ncnc(N)c24)c3F)n1
In short: as §1

nilotinib = compound: Cc1cn(-c2cc(NC(=O)c3ccc(C)c(Nc4nccc(-c5cccnc5)n4)c3)cc(C(F)(F)F)c2)cn1 [nilotinib]
In short: as §1

[6] = compound: Cc1nc(Nc2n[nH]c3c2CN(C(=O)N[C@H](CN(C)C)c2ccccc2)C3(C)C)c2sccc2n1
In short: as §1

dasatinib = compound: Cc1nc(Nc2ncc(C(=O)Nc3c(C)cccc3Cl)s2)cc(N2CCN(CCO)CC2)n1 [dasatinib]
In short: as §1

[7] = compound: Cc1ncc(-c2ccnc(Nc3ccc(S(C)(=O)=O)cc3)n2)n1C(C)C
In short: as §1

[8] = compound: Cn1cc(-c2ccc3c(c2)CCN3C(=O)Cc2cccc(C(F)(F)F)c2)c2c(N)ncnc21
In short: as §1

[9] = compound: Cn1cc(-c2ccc3nnc(C(F)(F)c4ccc5ncccc5c4)n3n2)cn1
In short: as §1

tipifarnib = compound: Cn1cncc1[C@@](N)(c1ccc(Cl)cc1)c1ccc2c(c1)c(-c1cccc(Cl)c1)cc(=O)n2C [tipifarnib]
In short: as §1

mubritinib = compound: FC(F)(F)c1ccc(/C=C/c2nc(COc3ccc(CCCCn4ccnn4)cc3)co2)cc1 [mubritinib]
In short: as §1

duvelisib = compound: C[C@H](Nc1ncnc2nc[nH]c12)c1cc2cccc(Cl)c2c(=O)n1-c1ccccc1 [duvelisib]
In short: as §1

tozasertib = compound: Cc1cc(Nc2cc(N3CCN(C)CC3)nc(Sc3ccc(NC(=O)C4CC4)cc3)n2)n[nH]1 [tozasertib]
In short: as §1

| Target | log2 fold change [1] | log2 fold change (crizotinib) | log2 fold change [2] | log2 fold change [3] | log2 fold change (gandotinib) | log2 fold change [4] | log2 fold change (doramapimod) | log2 fold change (ispinesib) | log2 fold change (bafetinib) | log2 fold change [5] | log2 fold change (nilotinib) | log2 fold change [6] | log2 fold change (dasatinib) | log2 fold change [7] | log2 fold change [8] | log2 fold change [9] | log2 fold change (tipifarnib) | log2 fold change (mubritinib) | log2 fold change (duvelisib) | log2 fold change (tozasertib) |
| --- | --- | --- | --- | --- | --- | --- | --- | --- | --- | --- | --- | --- | --- | --- | --- | --- | --- | --- | --- | --- |
| DIAPH1 (UniProt O60610) | inactive: 0.047 | inactive: -0.152 | inactive: -0.054 | inactive: 0.168 | inactive: -0.063 | inactive: 0.125 | inactive: 0.135 | inactive: -0.089 | inactive: 0.088 | inactive: 0.057 | inactive: -0.011 | inactive: -0.197 | inactive: -0.055 | inactive: 0.077 | inactive: -0.083 | inactive: -0.035 | inactive: -0.077 | inactive: 0.039 | – | – |
| DMXL2 isoform 3 (UniProt Q8TDJ6) | inactive: 0.023 | – | inactive: -0.139 | inactive: 0.185 | inactive: -0.27 | inactive: 0.103 | – | inactive: -0.035 | inactive: -0.122 | inactive: -0.23 | – | – | inactive: -0.079 | – | inactive: -0.164 | inactive: 0.238 | – | – | inactive: 0.077 | inactive: -0.1 |
| DIP2A (UniProt Q14689) | inactive: -0.094 | inactive: 0.087 | inactive: 0.159 | inactive: -0.01 | inactive: 0.023 | inactive: 0.081 | inactive: 0.141 | inactive: 0.01 | inactive: -0.005 | inactive: -0.019 | inactive: 0.005 | inactive: -0.07 | inactive: -0.04 | inactive: 0.01 | inactive: 0.043 | inactive: -0.053 | inactive: 0.02 | inactive: 0.002 | – | – |
| DLD (UniProt P09622) | inactive: -0.068 | inactive: -0.023 | inactive: 0.019 | inactive: -0.042 | inactive: -0.02 | inactive: 0.014 | inactive: -0.016 | inactive: -0.083 | inactive: -0.028 | inactive: -0.042 | inactive: 0.034 | inactive: -0.018 | inactive: -0.025 | inactive: -0.066 | inactive: -0.04 | inactive: 0.015 | inactive: -0.008 | active: -0.429 | – | – |
| DNAAF2 (UniProt Q9NVR5) | inactive: 0.018 | inactive: -0.015 | inactive: -0.067 | inactive: 0.003 | inactive: -0.182 | inactive: -0.034 | inactive: 0.042 | inactive: 0.032 | inactive: -0.075 | inactive: 0.057 | inactive: 0.023 | inactive: 0.002 | inactive: -0.049 | inactive: 0 | inactive: -0.037 | inactive: 0.036 | inactive: 0.004 | inactive: 0.026 | – | – |
| DDOST (UniProt P39656) | inactive: 0.014 | inactive: -0.051 | inactive: -0.065 | inactive: -0.055 | inactive: 0.02 | inactive: -0.016 | inactive: 0.005 | inactive: 0.13 | inactive: -0.035 | inactive: -0.001 | inactive: -0.005 | inactive: 0.033 | inactive: 0.016 | inactive: -0.039 | inactive: -0.04 | inactive: 0 | inactive: 0.047 | inactive: -0.022 | – | – |
| DDX41 (UniProt Q9UJV9) | inactive: 0.027 | – | inactive: -0.231 | inactive: -0.212 | inactive: -0.066 | inactive: -0.044 | – | inactive: -0.069 | inactive: -0.16 | inactive: 0.01 | inactive: -0.065 | inactive: -0.055 | inactive: -0.035 | inactive: -0.003 | inactive: -0.099 | inactive: 0.006 | inactive: 0.119 | inactive: -0.033 | inactive: -0.052 | inactive: 0 |
| DNAH5 (UniProt Q8TE73) | inactive: 0.049 | inactive: 0.145 | inactive: -0.007 | inactive: -0.076 | inactive: 0.013 | inactive: -0.052 | inactive: -0.031 | inactive: 0.057 | inactive: -0.065 | inactive: -0.084 | inactive: -0.006 | inactive: 0.015 | inactive: 0.085 | inactive: -0.015 | inactive: 0 | inactive: -0.06 | inactive: 0.267 | inactive: 0.032 | – | – |

Reformatted as tab-separated lines: part of the list above.
Target	log2 fold change [1]	log2 fold change (crizotinib)	log2 fold change [2]	log2 fold change [3]	log2 fold change (gandotinib)	log2 fold change [4]	log2 fold change (doramapimod)	log2 fold change (ispinesib)	log2 fold change (bafetinib)	log2 fold change [5]	log2 fold change (nilotinib)	log2 fold change [6]	log2 fold change (dasatinib)	log2 fold change [7]	log2 fold change [8]	log2 fold change [9]	log2 fold change (tipifarnib)	log2 fold change (mubritinib)	log2 fold change (duvelisib)	log2 fold change (tozasertib)
DDOST (UniProt P39656)	inactive: 0.014	inactive: -0.051	inactive: -0.065	inactive: -0.055	inactive: 0.02	inactive: -0.016	inactive: 0.005	inactive: 0.13	inactive: -0.035	inactive: -0.001	inactive: -0.005	inactive: 0.033	inactive: 0.016	inactive: -0.039	inactive: -0.04	inactive: 0	inactive: 0.047	inactive: -0.022	–	–
DDX41 (UniProt Q9UJV9)	inactive: 0.027	–	inactive: -0.231	inactive: -0.212	inactive: -0.066	inactive: -0.044	–	inactive: -0.069	inactive: -0.16	inactive: 0.01	inactive: -0.065	inactive: -0.055	inactive: -0.035	inactive: -0.003	inactive: -0.099	inactive: 0.006	inactive: 0.119	inactive: -0.033	inactive: -0.052	inactive: 0
